Data taken from patent publication US20140301946A1 (Novartis, published 2014).
Numbering of substitutions follows the chain as printed. Results are given in words; binding and its absence hold for the method and conditions named. For some of these results: Binding can be weak; no strength is given.

B1: mAb 12422 (antibody, human IgG1, kappa, V domains shown)
VH: QVQLVQSGAEVKKPGSSVKVSCKASGGTFSSYAISWVRQAPGQGLEWMGYISPYMGETHYAQKFQGRVTITADESTSTAYMELSSLRSEDTAVYYCARESYEYFDIWGQGTLVTVSS
VL: DIQMTQSPSSLSASVGDRVTITCRASQSISNDLAWYQQKPGKAPKLLIYATSILQSGVPSRFSGSGSGTDFTLTISSLQPEDFATYYCLQYYDYSYTFGQGTKVEIKR
B2: mAb 12439 (antibody, human IgG1, kappa, V domains shown)
VH: QVQLVQSGAEVKKPGASVKVSCKASGYTFTSYDISWVRQAPGQGLEWMGWINPYNGGTNYAQKFQGRVTMTRDTSISTAYMELSRLRSEDTAVYYCAREGSGMIVYPGWSYAFDYWGQGTLVTVSS
VL: B1 VL with S28D, A34G, T51A, I53S, L89Q, Y91H, D93H, Y94T, S95P, Y96N

Experiments:
Assay in all cases: SPR (Biacore)
[1] = target: Human FGFR1 IIIb D1-3 (human)
[2] = target: Human FGFR2 IIIb D1-3 (human)
[3] = target: Human FGFR3 IIIb D1-3 (human)
[4] = target: Mouse FGFR2 IIIb D1-3 (mouse)
[5] = target: Rat FGFR2 IIIb D1-3 (rat)

Binder	binding [1]	binding [2]	binding [3]	binding [4]	binding [5]
B1	no binding	binds	no binding	binds	binds
B2	no binding	binds	no binding	binds	binds
